Reference: publication doi:10.1101/2024.09.08.611708

Biological target: T1, mCherry-AtATG8A (A. thaliana) (UniProt Q8LEM4)
T1 sequence: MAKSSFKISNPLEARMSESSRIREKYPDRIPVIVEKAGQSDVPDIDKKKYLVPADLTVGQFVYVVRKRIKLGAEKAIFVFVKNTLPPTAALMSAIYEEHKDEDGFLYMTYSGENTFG
Experiment: affinity purification with mass spectrometry

binding: binds
Substance: AtCESAR2 (endogenous)

No constants are given. Whether binding was seen depends on the method and setting. Binding seen in cells or lysates may run through a third protein. Here binding means that the protein was enriched with, or labelled near, the bait; the list need not be complete.
